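Luminescence from an EWS-FLI1 target-promoter (NR0B1) reporter, set against a CMV-promoter reporter, two days after silencing single genes in TC32 Ewing sarcoma cells. Each siRNA was applied at 20 nM. A z-score of the log NR0B1-over-CMV signal, less the median of siRNAs with the same seed; more negative means a stronger specific loss of the NR0B1 reporter.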

This is part of the screen; most of the strongest results are not listed here. Sequences are the guide (antisense) strand, without overhang.

strand,gene,seed-corrected z-score
UUGCUUUGAAAGUCCUUGG,FAM213A,-0.3748
AAACAUACUAUUGUGCAUG,CYTL1,-0.3396
UCUGUAAGUAGAGCUCUAG,GSTO1,-0.3742
UGAGAUACAUGUCUACGGC,TMEM217,-0.5423
AAUGUUACAGGUGGUGAGC,SLC18A3,-0.2678
UGUUCUUUGCUUUAUAUAC,RPL35A,-1.138
UAGUGUAUGAGAUGAUUAG,OR4F4,0.9633
UAAAUGAGUGGAGCGAUGG,JAGN1,-0.7348
UUCACGUCAACAAUUGCCG,TXNDC11,-0.05976
UCAGCGAUUUCCUCCAGCC,GUCA2A,0.5019
UAUGUCACACGGUGCAUCC,GPAT2,0.09214
UCCUAUACCACUCAAUGCC,HS3ST5,0.6532
UACUGAACAUAUACAUUGC,ZRSR2,0.7126
UUGGUGAAGUUUGCGAUGC,ACLY,-0.06394
UCUGUUAGAGAUAUUGUGG,GUCY1A2,-0.5017
UGAGGACCACAACCUGUGC,VPREB1,0.2878
UUUCGCACUUGGAUCUUCA,FCER1G,-0.01473
ACCGAUAUGAGAAGAAGCC,ATL3,-0.507
UUAGCUUCCCUUGACAGCU,LOC729369,0.4799
AUGGGUCUCAUCACUUAGC,PANX3,-1.181
UUGGAUGUCAGGAAUUUCU,LOC100132057,1.505
UAUUUCCUGAGGUCGAUUG,FBXO22,0.685
UUCACAUUUUCGAUGGUGU,UBB,0.6077
AUAUAGACCAUUAUAGCUC,ATP11AUN,0.01721
UUGUAGGUCAUGAAGAUGA,SLC31A1,-0.09139
UGUACCACAAGUCUCACAC,ZNHIT6,-0.5689
AAUGCAAUGGUUCUGGUUG,OLAH,-0.2685
UACGAUGCCGGUGUACAGC,SLC5A5,-0.5962
AAACAAACUACAAGAAAGG,COA3,0.7166
UCAUCGAUCAUCUCAAACU,MAPK8IP2,0.161
AACACGACAGGCAUCUUGG,C20orf195,-1.642
UCUUCAGUGAUUGAGGUCC,PLEKHG2,0.8415
UAAAGGAAGAUUUCUGCGG,LOC388692,2.348
UUAGCGAUAAGAUAUAUUC,TAAR1,-0.1484
UCAUGCUAUAGUACACUGG,R3HDM2,1.172
UCCUCUGUCAGCAAAUGCC,THEM6,-0.6934
ACAACUUCCACAUUCACUG,ZNF501,-0.2017
UUAAGGAUCUGUUGGUUGG,RAI1,-0.3748
UCUGUUACUCUUUGCACCC,CLIP4,-0.8877
UCCAUUAUCACCUGACUCC,TGFBR3,-0.3463
UUGAUCUUGAGUGCCGUGC,CACNA1S,-0.3444
AGACGUAAUCCCGCUGUUC,FIS1,0.04528
UCGGCUGAUAGUUAUAGUC,FIP1L1,-0.03967
UAGUAACCAACAAAGUUGG,STYK1,0.08261
UGUUGAUCUCUAGAAUCCC,DCAF17,-1.071
UACGUGUCGCGGAAGGUCU,CHST1,-1.003
UUCACUCAAAGCUUCAUGG,EEF1A1,-0.4871
UGAGGACCGAGUUCAGAAG,SLC5A5,0.8246
AUCGGUACCAUUGUUAGCC,CREB1,-0.448
AGAGUUCUUAGCAUCACGC,LRRC16A,-0.6756
UAAGUAGAUGUAAUCCAGG,EPHB6,-0.3866
UUCUGUUCACUGUAGCCUG,GNL1,-0.2775
UUUCCGCUUACCACAAUGC,ZBTB10,-0.8354
UAAGUCUAUUGCAAUAUUC,ZNF678,-0.01214
AAAGCUACGAUCCAAUAGC,SESN1,1.13
UAUGGAGUAAUCAAUGGUG,C1orf54,-0.4184
UAAUCUGUUUUGUAAGCGC,FAM221A,-0.9531
UGCGGUUGUACUUCCUCGC,ASIC4,-1.199
UCUUUUUCGGAUGUUAACC,BSCL2,0.8348
UGGAGAACCACAAAGCUCU,PCOLCE,-0.5852
UCUUCUAUCAAUUAUUUUC,SERBP1,0.6857
UUUACGUCAGGAUAAGGUG,MET,0.865
AAAUGGAAUUGGUGGAAGU,FDCSP,-0.01722
UGAAGUUCACGAUUGAGCC,CLTCL1,-0.3795
AGACCAAUCAGACUUGUGG,SPRY3,0.6879
UUUCGCAUAAGAAGGAGAG,FRMD3,0.002257
UAAGGAUUGAGAAAUGGUU,ZNF43,0.5876
UUGCCUCCCUUUUCAACGG,CYCS,-0.309
UGGAAGAAUACAUACACUG,PIGY,0.1923
UCCUUGUCUCGGGAAAAGC,PALM,-1.718
AAGCGGUCGGUGAAAGUCC,RGMA,-0.6144
UAACGUAAAGAAGGGUGGG,VPS25,-0.5063
UAUAGUCUUCGAUGAGCUG,GPN2,-0.2732
AUUGAUAUCUUGACACUCC,LTBP2,0.06971
UAUGUAGCUAUCAAAAUGC,UGT3A1,0.279
UGAUCGUUCCCAAAGCUUG,PHF21B,0.6078
UAUUCGUGUAGGCAAAGCG,GPR183,-0.6603
UACCGUGAUGGAAUAGAGG,CSMD1,0.2086
UAUUGGUAUAGCGCAGAAC,PEPD,0.4828

The results are deposited in PubChem (AID1159506; NCATS, 2015).